Consider two compounds from patent US5576433A, “Fluorescent calcium indicators targeted to specific intracellular environments” (priority 1994, dated 1996).

A short description of this data set: pH sensitivity of the calcium dissociation constant (Table 2). The data set is classed as binding. Conditions: for effect of the piperazine amino group on pH sensitivity (in words): compared to fura-2; for DKd/pH: pH 6.9 vs pH 7.3, 20° C. An excerpt:
The calcium dissociation constant of BAPTA-like calcium chelators and indicators is strongly affected by electron withdrawing effects of substituents on the BAPTA aromatic rings. The zwitterionic indicators described herein each contain an ionizable amine. The difference in electron withdrawing effects of the ionized and unionized amine could potentially communicate to BAPTA, creating a situation were the calcium affinity varied with pH. The design of PE3 and FFP18 was aimed at minimizing or eliminating this possibility by insulating the ionizable amine from the BAPTA ring with an aliphatic spacer containing one or more carbons. To test the effectiveness of this design, the calcium Kd of PE3 and FFP18 was measured at different pH values and compared to the values obtained for fura-2. […] Thus, the aim of the test was to determine whether the piperazine amino group gives the indicator increased pH sensitivity.
On page 36 of U.S. Pat. No. 4,603,209 (Tsien, et. al., 1987 Aug. 25), R2 is claimed as H, CH3, F, Cl, Br and […]. The R2 of PE3 and FFP18 is none of these claimed in that patent.

Each structure is given as a SMILES string.

As to `O=C(O)CN1CCN(C(=O)CCc2ccc(N(CC(=O)O)CC(=O)O)c(OCCOc3cc4cc(-c5ncc(C(=O)O)o5)oc4cc3N(CC(=O)O)CC(=O)O)c2)CC1` [PE3], the “effect of the piperazine amino group on pH sensitivity (in words)” value is “little difference in pH sensitivity” and the DKd/pH worked out at 65.
For `Cc1ccc(N(CC(=O)O)CC(=O)O)c(OCCOc2cc3cc(-c4ncc(C(=O)O)o4)oc3cc2N(CC(=O)O)CC(=O)O)c1` [fura-2, reference compound] the same measures were “already slightly pH sensitive” and 55.
